These results are taken from article PMC4860851 (Cell Discovery, 2015).

These are yes or no findings as the source states them, for the method shown. Some results given as binding are weak or reduced against the parent protein; the word gives no strength.

For the assay, the target named is HA of human influenza virus A/Puerto Rico/8/34 H1N1 (PR8), on the virus and on PR8-treated EL4 cells (influenza A/Puerto Rico/8/34 H1N1 (PR8)) (UniProt P03452). The assay is described as follows: flow cytometry on cells; only the binder purified. A general note: A flow cytometer gives signals particle by particle.

Consider “biotinylated Ncr1 Ig (from UniProt Q8C567 17-255) (Fc fusion)”, for which the binding entry is “binds”.
As to “Ncr1 N139 216 238A Ig (from UniProt Q8C567 17-255) (Fc fusion)”, the binding result is recorded as “binds”.
